The other results are listed elsewhere or left out.
Experiments:
Experiment in all cases: glycan array binding signal (z-score within array); higher = stronger binding
Details in all cases: glycan notation: IUPAC condensed, linker removed
[1] = target: Fuc(a1-2)Gal
In short: (§1)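 Glycan array data were curated from 3228 arrays in the Consortium for Functional Glycomics database and kept only where the protein sequence was available. Glycan names were converted to IUPAC-condensed notation, and columns mapping to the same glycan were averaged. The binding signal is a within-array Z-score, averaged across arrays of the same protein sequence at different concentrations or buffers and across linkers. Negative Z-scores can be read as non-binding.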

[2] = target: Fuc(a1-2)Gal(b1-3)GalNAc
In short: as §1

[3] = target: Fuc(a1-2)Gal(b1-3)GalNAc(b1-3)Gal
In short: as §1

[4] = target: Fuc(a1-2)Gal(b1-3)GalNAc(b1-3)Gal(a1-4)Gal(b1-4)Glc
In short: as §1

[5] = target: Fuc(a1-2)Gal(b1-3)GalNAc(b1-4)[Neu5Ac(a2-3)]Gal(b1-4)Glc
In short: as §1

[6] = target: Fuc(a1-2)Gal(b1-3)GlcNAc
In short: as §1

[7] = target: Fuc(a1-2)Gal(b1-3)GlcNAc(b1-2)Man(a1-3)[Fuc(a1-2)Gal(b1-3)GlcNAc(b1-2)Man(a1-6)]Man(b1-4)GlcNAc(b1-4)GlcNAc
In short: as §1

[8] = target: Fuc(a1-2)Gal(b1-3)GlcNAc(b1-3)Gal(b1-4)Glc
In short: as §1

[9] = target: Fuc(a1-2)Gal(b1-3)GlcNAc(b1-3)[Gal(b1-4)[Fuc(a1-3)]GlcNAc(b1-6)]Gal(b1-4)Glc
In short: as §1

[10] = target: Fuc(a1-2)Gal(b1-3)[Fuc(a1-4)]GlcNAc
In short: as §1

[11] = target: Fuc(a1-2)Gal(b1-3)[Fuc(a1-4)]GlcNAc(b1-2)Man(a1-3)[Fuc(a1-2)Gal(b1-3)[Fuc(a1-4)]GlcNAc(b1-2)Man(a1-6)]Man(b1-4)GlcNAc(b1-4)GlcNAc
In short: as §1

[12] = target: Fuc(a1-2)Gal(b1-4)Glc
In short: as §1

[13] = target: Fuc(a1-2)Gal(b1-4)Glc6S
In short: as §1

[14] = target: Fuc(a1-2)Gal(b1-4)GlcNAc
In short: as §1

[15] = target: Fuc(a1-2)Gal(b1-4)GlcNAc(b1-2)Man(a1-3)[Fuc(a1-2)Gal(b1-4)GlcNAc(b1-2)Man(a1-6)]Man(b1-4)GlcNAc(b1-4)GlcNAc
In short: as §1

[16] = target: Fuc(a1-2)Gal(b1-4)GlcNAc(b1-3)Gal(b1-4)GlcNAc
In short: as §1

[17] = target: Fuc(a1-2)Gal(b1-4)GlcNAc(b1-3)Gal(b1-4)GlcNAc(b1-3)Gal(b1-4)GlcNAc
In short: as §1

[18] = target: Fuc(a1-2)Gal(b1-4)GlcNAc6S
In short: as §1

[19] = target: Fuc(a1-2)Gal(b1-4)[Fuc(a1-3)]GlcNAc
In short: as §1

[20] = target: Fuc(a1-2)Gal(b1-4)[Fuc(a1-3)]GlcNAc(b1-2)Man(a1-3)[Fuc(a1-2)Gal(b1-4)[Fuc(a1-3)]GlcNAc(b1-2)Man(a1-6)]Man(b1-4)GlcNAc(b1-4)GlcNAc
In short: as §1

[21] = target: Fuc(a1-2)Gal(b1-4)[Fuc(a1-3)]GlcNAc(b1-3)Gal(b1-4)[Fuc(a1-3)]GlcNAc
In short: as §1

[22] = target: Fuc(a1-2)Gal(b1-4)[Fuc(a1-3)]GlcNAc(b1-3)Gal(b1-4)[Fuc(a1-3)]GlcNAc(b1-3)Gal(b1-4)[Fuc(a1-3)]GlcNAc
In short: as §1

[23] = target: Fuc(a1-2)Gal6S(b1-4)Glc
In short: as §1

[24] = target: Fuc(a1-2)Gal6S(b1-4)Glc6S
In short: as §1

[25] = target: Fuc(a1-2)Gal6S(b1-4)GlcNAc
In short: as §1

[26] = target: Fuc(a1-2)[Gal(a1-3)]Gal
In short: as §1

[27] = target: Fuc(a1-2)[Gal(a1-3)]Gal(b1-3)GlcNAc
In short: as §1

[28] = target: Fuc(a1-2)[Gal(a1-3)]Gal(b1-3)GlcNAc(b1-2)Man(a1-3)[Fuc(a1-2)[Gal(a1-3)]Gal(b1-3)GlcNAc(b1-2)Man(a1-6)]Man(b1-4)GlcNAc(b1-4)GlcNAc
In short: as §1

[29] = target: Fuc(a1-2)[Gal(a1-3)]Gal(b1-4)Glc
In short: as §1

[30] = target: Fuc(a1-2)[Gal(a1-3)]Gal(b1-4)GlcNAc
In short: as §1

[31] = target: Fuc(a1-2)[Gal(a1-3)]Gal(b1-4)GlcNAc(b1-2)Man(a1-3)[Fuc(a1-2)[Gal(a1-3)]Gal(b1-4)GlcNAc(b1-2)Man(a1-6)]Man(b1-4)GlcNAc(b1-4)GlcNAc
In short: as §1

[32] = target: Fuc(a1-2)[Gal(a1-3)]Gal(b1-4)[Fuc(a1-3)]GlcNAc
In short: as §1

[33] = target: Fuc(a1-2)[Gal(a1-4)]Gal(b1-4)GlcNAc
In short: as §1

[34] = target: Fuc(a1-2)[GalNAc(a1-3)]Gal
In short: as §1

[35] = target: Fuc(a1-2)[GalNAc(a1-3)]Gal(b1-3)GlcNAc
In short: as §1

[36] = target: Fuc(a1-2)[GalNAc(a1-3)]Gal(b1-3)GlcNAc(b1-2)Man(a1-3)[Fuc(a1-2)[GalNAc(a1-3)]Gal(b1-3)GlcNAc(b1-2)Man(a1-6)]Man(b1-4)GlcNAc(b1-4)GlcNAc
In short: as §1

[37] = target: Fuc(a1-2)[GalNAc(a1-3)]Gal(b1-4)Glc
In short: as §1

[38] = target: Fuc(a1-2)[GalNAc(a1-3)]Gal(b1-4)GlcNAc
In short: as §1

[39] = target: Fuc(a1-2)[GalNAc(a1-3)]Gal(b1-4)GlcNAc(b1-2)Man(a1-3)[GalNAc(a1-3)[Fuc(a1-2)]Gal(b1-4)GlcNAc(b1-2)Man(a1-6)]Man(b1-4)GlcNAc(b1-4)GlcNAc
In short: as §1

[40] = target: Fuc(a1-2)[GalNAc(a1-3)]Gal(b1-4)GlcNAc(b1-3)Gal(b1-4)GlcNAc
In short: as §1

[41] = target: Fuc(a1-2)[GalNAc(a1-3)]Gal(b1-4)GlcNAc(b1-3)Gal(b1-4)GlcNAc(b1-3)Gal(b1-4)GlcNAc
In short: as §1

[42] = target: Fuc(a1-2)[GalNAc(a1-3)]Gal(b1-4)[Fuc(a1-3)]GlcNAc
In short: as §1

[43] = target: Fuc(a1-2)[GalNAc(a1-4)]Gal(b1-4)GlcNAc
In short: as §1

[44] = target: Fuc(a1-2)[GalNAc(b1-3)]Gal
In short: as §1

[45] = target: Fuc(a1-3)GlcNAc
In short: as §1

[46] = target: Fuc(a1-3)[Gal(b1-4)]Glc6S
In short: as §1

[47] = target: Fuc(a1-3)[Gal(b1-4)]GlcNAc
In short: as §1

[48] = target: Fuc(a1-3)[Gal(b1-4)]GlcNAc(b1-2)Man(a1-3)[Fuc(a1-3)[Gal(b1-4)]GlcNAc(b1-2)Man(a1-6)]Man(b1-4)GlcNAc(b1-4)GlcNAc
In short: as §1

[49] = target: Fuc(a1-3)[Gal(b1-4)]GlcNAc(b1-2)Man(a1-6)[Gal(b1-4)GlcNAc(b1-2)Man(a1-3)]Man(b1-4)GlcNAc(b1-4)GlcNAc
In short: as §1

[50] = target: Fuc(a1-3)[Gal(b1-4)]GlcNAc(b1-3)Gal(b1-3)[Fuc(a1-4)]GlcNAc
In short: as §1

[51] = target: Fuc(a1-3)[Gal(b1-4)]GlcNAc(b1-4)Gal(b1-4)[Fuc(a1-3)]GlcNAc
In short: as §1

[52] = target: Fuc(a1-3)[Gal(b1-4)]GlcNAc(b1-4)Gal(b1-4)[Fuc(a1-3)]GlcNAc(b1-4)Gal(b1-4)[Fuc(a1-3)]GlcNAc
In short: as §1

[53] = target: Fuc(a1-3)[Gal(b1-4)]GlcNAc6S
In short: as §1

[54] = target: Fuc(a1-3)[Gal3S(b1-4)]Glc6S
In short: as §1

[55] = target: Fuc(a1-3)[Gal3S(b1-4)]GlcNAc
In short: as §1

[56] = target: Fuc(a1-3)[Gal3S(b1-4)]GlcNAc6S
In short: as §1

[57] = target: Fuc(a1-3)[GalNAc(b1-4)]GlcNAc
In short: as §1

[58] = target: Fuc(a1-3)[Neu5Ac(a2-3)]Gal(b1-4)GlcNAc(b1-3)GalNAc
In short: as §1

[59] = target: Fuc(a1-4)GlcNAc
In short: as §1

[60] = target: Fuc(b1-3)GlcNAc
In short: as §1

B1: Spy 2007 (Streptococcus pyogenes), Q99XV3 (protein)
chain: MKKGFFLMAMVVSLVMIAGCDKSANPKQPTQGMSVVTSFYPMYAMTKEVSGDLNDVRMIQSGAGIHSFEPSVNDVAAIYDADLFVYHSHTLEAWARDLDPNLKKSKVDVFEASKPLTLDRVKGLEDMEVTQGIDPATLYDPHTWTDPVLAGEEAVNIAKELGRLDPKHKDSYTKNAKAFKKEAEQLTEEYTQKFKKVRSKTFVTQHTAFSYLAKRFGLKQLGISGISPEQEPSPRQLKEIQDFVKEYNVKTIFAEDNVNPKIAHAIAKSTGAKVKTLSPLEAAPSGNKTYLENLRANLEVLYQQLK
glycan array binding signal (z-score) [1]: 2.07
glycan array binding signal (z-score) [2]: -0.465
glycan array binding signal (z-score) [3]: -0.204
glycan array binding signal (z-score) [4]: -0.587
glycan array binding signal (z-score) [5]: -0.602
glycan array binding signal (z-score) [6]: -0.387
glycan array binding signal (z-score) [7]: 0.811
glycan array binding signal (z-score) [8]: -0.532
glycan array binding signal (z-score) [9]: -0.69
glycan array binding signal (z-score) [10]: -0.561
glycan array binding signal (z-score) [11]: 0.064
glycan array binding signal (z-score) [12]: -0.353
glycan array binding signal (z-score) [13]: 0.714
glycan array binding signal (z-score) [14]: 0.299
glycan array binding signal (z-score) [15]: -0.01
glycan array binding signal (z-score) [16]: -0.495
glycan array binding signal (z-score) [17]: -0.125
glycan array binding signal (z-score) [18]: -0.056
glycan array binding signal (z-score) [19]: -0.671
glycan array binding signal (z-score) [20]: 0.69
glycan array binding signal (z-score) [21]: -0.862
glycan array binding signal (z-score) [22]: 0.084
glycan array binding signal (z-score) [23]: 2.17
glycan array binding signal (z-score) [24]: 0.976
glycan array binding signal (z-score) [25]: 1.21
glycan array binding signal (z-score) [26]: -0.201
glycan array binding signal (z-score) [27]: -0.784
glycan array binding signal (z-score) [28]: -0.975
glycan array binding signal (z-score) [29]: -0.515
glycan array binding signal (z-score) [30]: -0.722
glycan array binding signal (z-score) [31]: -1.22
glycan array binding signal (z-score) [32]: 0.664
glycan array binding signal (z-score) [33]: -0.369
glycan array binding signal (z-score) [34]: -0.504
glycan array binding signal (z-score) [35]: 0.059
glycan array binding signal (z-score) [36]: -0.914
glycan array binding signal (z-score) [37]: -0.849
glycan array binding signal (z-score) [38]: -0.665
glycan array binding signal (z-score) [39]: -0.606
glycan array binding signal (z-score) [40]: -0.558
glycan array binding signal (z-score) [41]: 0.246
glycan array binding signal (z-score) [42]: 0.119
glycan array binding signal (z-score) [43]: 0.034
glycan array binding signal (z-score) [44]: -0.148
glycan array binding signal (z-score) [45]: 0.046
glycan array binding signal (z-score) [46]: 0.675
glycan array binding signal (z-score) [47]: 0.136
glycan array binding signal (z-score) [48]: 0.038
glycan array binding signal (z-score) [49]: -0.579
glycan array binding signal (z-score) [50]: -0.44
glycan array binding signal (z-score) [51]: -0.088
glycan array binding signal (z-score) [52]: 0.396
glycan array binding signal (z-score) [53]: 0.562
glycan array binding signal (z-score) [54]: 1.48
glycan array binding signal (z-score) [55]: 0.277
glycan array binding signal (z-score) [56]: 2.33
glycan array binding signal (z-score) [57]: -0.891
glycan array binding signal (z-score) [58]: 5.41
glycan array binding signal (z-score) [59]: 0.449
glycan array binding signal (z-score) [60]: 0.122

Reference: the supplement of paper PMC8728848
